According to article PMC12431657, “Discovery and mechanistic insights of dibenzoylmethane as a broad spectrum inhibitor of coronavirus” (PLOS Pathogens, 2025):
Where a name gives a salt, the structure may show the parent alone. Read-outs that look alike come from different tables or passages of the source. The campaign covered roughly 3,300 compounds. About 95 (3%) showed an effect of 50% or more. This is one part of the list. Bridge positions count the residues as written; N and C are the ends. Square brackets hold non-standard residues; d marks the D form. Peptide text beside a SMILES is read from it. * marks the point of attachment. NMePhe(4-NMe2) = CN[C@@H](Cc1ccc(N(C)C)cc1)C(=O)O; Pip(4-oxo) = O=C1CCN[C@H](C(=O)O)C1; Picolinoyl(3-OH) = O=C(c1ncccc1O)*; Phg = N[C@H](C(=O)O)c1ccccc1; dAbu = CC[C@@H](N)C(=O)O

Test system: HCoV-229E
Design: species or system Huh-7; HTS, protection from HCoV-229E induced cell death, luminescent cell viability (CellCounting-Lite 2.0), inhibition rate
Settings: 24 h post infection, 1 h compound pre-incubation, 10 µM, inhibitor

C=C1C[C@@]2(O)O[C@@]3(C[C@H]2C(C)C)[C@@H](C)CC[C@@H]13 [Curcumol]
229E Inhibition rate: 11.7%

CC(C)CC(=O)NCC(=O)O [N-Isovaleroylglycine]
229E Inhibition rate: 9.6%

COc1c2c(cc3c1-c1c(cc4c(c1OC)OCO4)C[C@H](C)[C@H](C)C3)OCO2 [Schisandrin C]
229E Inhibition rate: 52.7%

O=C(O)/C=C/c1ccc(O)c(O)c1 [Caffeic acid]
229E Inhibition rate: 23.5%

CC(C)(COP(=O)(O)OP(=O)(O)OC[C@H]1O[C@@H](n2cnc3c(N)ncnc32)[C@H](O)[C@@H]1OP(=O)(O)O)[C@@H](O)C(=O)NCCC(=O)NCCS [Coenzyme A]
229E Inhibition rate: 10.1%

COc1cc([C@H]2OC[C@H]3[C@@H]2CO[C@@H]3c2ccc(O[C@@H]3O[C@H](CO)[C@@H](O)[C@H](O)[C@H]3O)c(OC)c2)ccc1O[C@@H]1O[C@H](CO)[C@@H](O)[C@H](O)[C@H]1O [Pinoresinol Diglucoside]
229E Inhibition rate: 23.6%

O=C1N[C@@H](Cc2ccccc2)C(=O)N2CCC[C@@H]12 [Cyclo(L-Phe-L-Pro)]
229E Inhibition rate: 11.1%

C[C@@H]1O[C@@H](O)[C@H](O)[C@H](O)[C@H]1O [α-L-Rhamnose monohydrate]
229E Inhibition rate: 15.5%

Nc1ncc[nH]1 [2-Aminoimidazole]
229E Inhibition rate: 21.7%

Cc1ncc(CO)c(C(=O)O)c1O [4-Pyridoxic acid]
229E Inhibition rate: 22.7%

CC(C)(O)C(=O)O [2-Hydroxyisobutyric acid]
229E Inhibition rate: 11.8%

C/C=C(/C)C(=O)O[C@H]1Cc2cc3ccc(=O)oc3cc2OC1(C)C [Decursinol angelate]
229E Inhibition rate: 18.2%

O=C(O)c1cccc(Oc2ccccc2)c1 [3-Phenoxybenzoic acid]
229E Inhibition rate: 9.2%

CCCCCCCC/C=C\CCCCCCCC(=O)NCC(=O)O [N-Oleoyl glycine]
229E Inhibition rate: 9%

Cc1cc(=O)oc2cc(O)cc(O)c12 [5,7-Dihydroxy-4-methylcoumarin]
229E Inhibition rate: 8.3%

O=c1cc(-c2ccccc2)oc2cc(O)ccc12 [7-Hydroxyflavone]
229E Inhibition rate: 36.4%

OCC(O)[C@@H](O)[C@H](O)[C@H](O)CO[C@H]1O[C@H](CO)[C@@H](O)[C@H](O)[C@H]1O (stereo partly drawn) [Isomalt]
229E Inhibition rate: 20.9%

C[C@@H]1CC[C@@]2(OC1)O[C@H]1C[C@H]3[C@@H]4CC[C@H]5C[C@@H](O[C@@H]6O[C@H](CO)[C@H](O[C@@H]7O[C@H](CO)[C@@H](O)[C@H](O[C@@H]8OC[C@@H](O)[C@H](O)[C@H]8O)[C@H]7O[C@@H]7O[C@H](CO)[C@H](O)[C@H](O)[C@H]7O)[C@H](O)[C@H]6O)CC[C@]5(C)[C@H]4CC(=O)[C@]3(C)[C@H]1[C@@H]2C [Terrestrosin D]
229E Inhibition rate: 6.7%

CC(=O)N[C@@H](CCCCN)C(=O)O [Acetyl-L-lysine]
229E Inhibition rate: 15.8%

CC(C)=CCc1c(O)cc(O)c2c(=O)c(O[C@@H]3O[C@@H](C)[C@H](O)[C@@H](O)[C@H]3O)c(-c3ccc(O)cc3)oc12 [IKarisoside A]
229E Inhibition rate: 0%

COc1ccc2ccc(=O)oc2c1CC=C(C)C [Osthole]
229E Inhibition rate: 4.6%

CC(C)=CCC[C@](C)(O[C@@H]1O[C@H](CO)[C@@H](O)[C@H](O)[C@H]1O)[C@H]1CC[C@]2(C)[C@@H]1[C@H](O)C[C@@H]1[C@@]3(C)CC[C@H](O)C(C)(C)[C@@H]3[C@@H](O[C@@H]3O[C@H](CO)[C@@H](O)[C@H](O)[C@H]3O[C@@H]3O[C@@H](C)[C@H](O)[C@@H](O)[C@H]3O)C[C@]12C [Ginsenoside Re]
229E Inhibition rate: 9.3%

CC1=C(/C=C/C(C)=C/C=C/C(C)=C/C(=O)O)C(C)(C)CCC1 [Retinoic acid]
229E Inhibition rate: 34.7%

O=C(/C=C/c1ccc(O)c(O)c1)O[C@@H]1C[C@@](OC(=O)/C=C/c2ccc(O)c(O)c2)(C(=O)O)C[C@@H](O)[C@@H]1O [Cynarin]
229E Inhibition rate: 18.7%

O=C(/C=C/c1ccc(O)cc1)c1ccccc1 [4-Hydroxychalcone]
229E Inhibition rate (229E Inhibition rate, 24 h): 12%

COc1cc2c(cc1OC)-c1cc3ccc(OC)c(O)c3c[n+]1CC2 [Palmaturbine (hydroxide)]
229E Inhibition rate (229E Inhibition rate, 24 h): 9.8%

CC(C)=CC[C@@H](O)C1=CC(=O)c2c(O)ccc(O)c2C1=O [Shikonin]
229E Inhibition rate: 2%

O=C(O)c1ccc(O)c(O)c1O [2,3,4-Trihydroxybenzoic acid]
229E Inhibition rate: 18%

C[C@@H]1CC[C@@]2(NC1)O[C@H]1C[C@H]3[C@@H]4CC=C5C[C@@H](O[C@@H]6O[C@H](CO)[C@H](O)[C@H](O[C@@H]7O[C@H](CO)[C@@H](O)[C@H](O)[C@H]7O)[C@H]6O[C@@H]6O[C@@H](C)[C@H](O)[C@@H](O)[C@H]6O)CC[C@]5(C)[C@H]4CC[C@]3(C)[C@H]1[C@@H]2C [Solasonine]
229E Inhibition rate: 8.1%

O=c1oc2cc(O)ccc2c2ccc(O)cc12 [Urolithin A]
229E Inhibition rate: 8.6%

CC[C@H](CC[C@@H](C)[C@H]1CC[C@H]2[C@@H]3CC=C4C[C@@H](O)CC[C@]4(C)[C@H]3CC[C@]12C)C(C)C [Beta-Sitosterol (purity>80%)]
229E Inhibition rate (229E Inhibition rate, 24 h): 9.6%

COc1cc2oc(-c3ccc(O)c(O)c3)c(OC)c(=O)c2c(O)c1OC [Chrysosplenol D]
229E Inhibition rate: 29.6%

C=C1C(=O)O[C@H]2C[C@H](C)C(/C=C/C(C)=O)=CC[C@H]12 [Xanthatin]
229E Inhibition rate: 11.2%

CC(=O)O[C@@H]1[C@@H](OC(C)=O)[C@@H](O)[C@H](Oc2c(-c3ccc(O)cc3)oc3cc(O)cc(O)c3c2=O)O[C@H]1C [SL 0101-1]
229E Inhibition rate: 31.7%

C[C@H]1O[C@@H](O[C@H]2CC[C@@]3(C)[C@@H](CC[C@]4(C)[C@@H]3C=CC3=C5CC(C)(C)CC[C@]5(CO)[C@H](O)C[C@]34C)[C@]2(C)CO)[C@H](O)[C@@H](O)[C@H]1O [Prosaikogenin D]
229E Inhibition rate: 5.5%

C[C@@H]1O[C@@H](c2c(O)c([C@@H]3O[C@H](CO)[C@@H](O)[C@H](O)[C@H]3O)c(O)c3c(=O)cc(-c4ccc(O)cc4)oc23)[C@H](O)[C@H](O)[C@H]1O [Violanthin]
229E Inhibition rate: 46.3%

C[C@H](O)[C@H](O)[C@@H](O)[C@@H](O)C=O [Rhamnose (monohydrate)]
229E Inhibition rate: 9.5%

Oc1nc(O)c2cn[nH]c2n1 [Oxypurinol]
229E Inhibition rate: 38%

CCn1cnc2c(N)ncnc21 [9-Ethyladenine]
229E Inhibition rate: 16.7%

C=C(C)[C@@H]1CC=C(/C=N/O)CC1 [Perillartine]
229E Inhibition rate: 15.2%

CC[C@H]1NC(=O)[C@@H](NC(=O)c2ncccc2O)[C@@H](C)OC(=O)[C@H](c2ccccc2)NC(=O)[C@@H]2CC(=O)CCN2C(=O)[C@H](Cc2ccc(N(C)C)cc2)N(C)C(=O)[C@@H]2CCCN2C1=O [Pristinamycin IA] ({Picolinoyl(3-OH)}-T[dAbu]P[NMePhe(4-NMe2)][Pip(4-oxo)][Phg]; ester 1-C)
229E Inhibition rate: 24.5%

COC(=O)c1ccccc1C(=O)OC [Dimethyl phthalate]
229E Inhibition rate: 5.7%

C[C@H](CC[C@@H](O[C@@H]1O[C@H](CO[C@@H]2O[C@H](CO)[C@@H](O)[C@H](O)[C@H]2O)[C@@H](O)[C@H](O)[C@H]1O)C(C)(C)O)[C@H]1CC[C@@]2(C)[C@@H]3CC=C4[C@@H](CC[C@H](O[C@@H]5O[C@H](CO[C@@H]6O[C@H](CO)[C@@H](O)[C@H](O)[C@H]6O)[C@@H](O)[C@H](O)[C@H]5O)C4(C)C)[C@]3(C)[C@H](O)C[C@]12C [Mogroside IV-A]
229E Inhibition rate: 32.3%

CC(C)CCC1(O)O[C@H]2[C@H](O)[C@H]3[C@@H]4CC[C@@H]5C[C@@H](O[C@@H]6O[C@H](CO)[C@H](O)[C@H](O)[C@H]6O[C@@H]6O[C@H](CO)[C@@H](O)[C@H](O)[C@H]6O)CC[C@]5(C)[C@H]4CC[C@]3(C)[C@H]2[C@@H]1C (stereo partly drawn) [Anemarrhenasaponin I]
229E Inhibition rate: 7.3%

C=CC(C)(CCC=C(C)C)OC(C)=O (stereo not drawn) [Linalyl acetate]
229E Inhibition rate: 7.5%

CC[C@H](C)C(=O)O[C@H]1C[C@@H](C)C=C2C=C[C@H](C)[C@H](CC[C@@H]3C[C@@H](O)CC(=O)O3)[C@H]21 [Lovastatin]
229E Inhibition rate: 23.8%

CCO[C@H]1O[C@@H]2O[C@@]3(C)CC[C@H]4[C@H](C)CC[C@@H]([C@H]1C)[C@@]24OO3 [Artemotil]
229E Inhibition rate: 24.5%

O=c1c(O[C@@H]2OC[C@H](O)[C@H](O)[C@H]2O)c(-c2ccc(O)c(O)c2)oc2cc(O)cc(O)c12 [Guaijaverin]
229E Inhibition rate: 20.3%

COc1ccc2c3c1O[C@H]1C[C@@H](O)C=C[C@@]31CCN(C)C2 [Galanthamine (hydrobromide)]
229E Inhibition rate (229E Inhibition rate, 24 h): 13.6%

CC(C)C[C@H](N)C(=O)N[C@@H](C)C(=O)O [L-Leucyl-L-alanine] (H-Leu-Ala-OH)
229E Inhibition rate: 8.7%

OC[C@H]1OC[C@H](O)[C@@H](O)[C@@H]1O [1,5-Anhydrosorbitol]
229E Inhibition rate: 12.9%

O=C1CCC[C@@H]2[C@H]3CCC[N+]4([O-])CCC[C@@H](CN12)[C@@H]34 (stereo partly drawn) [Oxymatrine]
229E Inhibition rate: 13.1%

COc1ccc(C)cc1 [4-Methylanisole]
229E Inhibition rate: 10.3%

C=C[C@@H]1C2=CCOC(=O)C2=CO[C@H]1O[C@@H]1O[C@H](CO[C@@H]2O[C@H](CO)[C@@H](O)[C@H](O)[C@H]2O)[C@@H](O)[C@H](O)[C@H]1O [6'-O-beta-D-Glucosylgentiopicroside]
229E Inhibition rate: 5.9%
